Experimental data from paper PMC3747043.
These are yes or no findings as the source states them, for the method shown. In cells and extracts the contact can be indirect. Some binding calls cover weakened binding; strength is not graded here.

Protein sequences, listed by entry. Tags and fused reporters are not part of them. Residues count along the entry.
UniProt P15209, residues 32-821: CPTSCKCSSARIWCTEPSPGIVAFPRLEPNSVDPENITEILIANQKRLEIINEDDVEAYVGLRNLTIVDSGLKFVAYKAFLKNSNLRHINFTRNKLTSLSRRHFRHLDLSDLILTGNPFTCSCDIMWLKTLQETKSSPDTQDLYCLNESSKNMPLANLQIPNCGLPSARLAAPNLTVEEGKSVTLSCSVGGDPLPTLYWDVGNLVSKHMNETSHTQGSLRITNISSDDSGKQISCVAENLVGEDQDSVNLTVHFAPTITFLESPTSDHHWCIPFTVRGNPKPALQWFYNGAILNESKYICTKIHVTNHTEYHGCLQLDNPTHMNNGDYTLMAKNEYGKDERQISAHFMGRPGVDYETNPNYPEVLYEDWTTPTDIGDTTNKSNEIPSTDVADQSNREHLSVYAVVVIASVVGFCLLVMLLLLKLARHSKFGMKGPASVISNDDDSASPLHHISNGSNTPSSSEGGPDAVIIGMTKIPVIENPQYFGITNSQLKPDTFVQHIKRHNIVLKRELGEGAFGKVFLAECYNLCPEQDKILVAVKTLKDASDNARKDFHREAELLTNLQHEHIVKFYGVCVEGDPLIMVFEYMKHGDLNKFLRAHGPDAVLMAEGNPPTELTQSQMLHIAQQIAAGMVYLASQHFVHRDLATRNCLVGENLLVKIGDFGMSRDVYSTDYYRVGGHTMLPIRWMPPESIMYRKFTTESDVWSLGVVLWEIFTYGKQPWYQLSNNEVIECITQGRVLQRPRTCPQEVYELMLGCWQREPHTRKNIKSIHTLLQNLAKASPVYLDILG
UniProt O88307, residues 82-2215: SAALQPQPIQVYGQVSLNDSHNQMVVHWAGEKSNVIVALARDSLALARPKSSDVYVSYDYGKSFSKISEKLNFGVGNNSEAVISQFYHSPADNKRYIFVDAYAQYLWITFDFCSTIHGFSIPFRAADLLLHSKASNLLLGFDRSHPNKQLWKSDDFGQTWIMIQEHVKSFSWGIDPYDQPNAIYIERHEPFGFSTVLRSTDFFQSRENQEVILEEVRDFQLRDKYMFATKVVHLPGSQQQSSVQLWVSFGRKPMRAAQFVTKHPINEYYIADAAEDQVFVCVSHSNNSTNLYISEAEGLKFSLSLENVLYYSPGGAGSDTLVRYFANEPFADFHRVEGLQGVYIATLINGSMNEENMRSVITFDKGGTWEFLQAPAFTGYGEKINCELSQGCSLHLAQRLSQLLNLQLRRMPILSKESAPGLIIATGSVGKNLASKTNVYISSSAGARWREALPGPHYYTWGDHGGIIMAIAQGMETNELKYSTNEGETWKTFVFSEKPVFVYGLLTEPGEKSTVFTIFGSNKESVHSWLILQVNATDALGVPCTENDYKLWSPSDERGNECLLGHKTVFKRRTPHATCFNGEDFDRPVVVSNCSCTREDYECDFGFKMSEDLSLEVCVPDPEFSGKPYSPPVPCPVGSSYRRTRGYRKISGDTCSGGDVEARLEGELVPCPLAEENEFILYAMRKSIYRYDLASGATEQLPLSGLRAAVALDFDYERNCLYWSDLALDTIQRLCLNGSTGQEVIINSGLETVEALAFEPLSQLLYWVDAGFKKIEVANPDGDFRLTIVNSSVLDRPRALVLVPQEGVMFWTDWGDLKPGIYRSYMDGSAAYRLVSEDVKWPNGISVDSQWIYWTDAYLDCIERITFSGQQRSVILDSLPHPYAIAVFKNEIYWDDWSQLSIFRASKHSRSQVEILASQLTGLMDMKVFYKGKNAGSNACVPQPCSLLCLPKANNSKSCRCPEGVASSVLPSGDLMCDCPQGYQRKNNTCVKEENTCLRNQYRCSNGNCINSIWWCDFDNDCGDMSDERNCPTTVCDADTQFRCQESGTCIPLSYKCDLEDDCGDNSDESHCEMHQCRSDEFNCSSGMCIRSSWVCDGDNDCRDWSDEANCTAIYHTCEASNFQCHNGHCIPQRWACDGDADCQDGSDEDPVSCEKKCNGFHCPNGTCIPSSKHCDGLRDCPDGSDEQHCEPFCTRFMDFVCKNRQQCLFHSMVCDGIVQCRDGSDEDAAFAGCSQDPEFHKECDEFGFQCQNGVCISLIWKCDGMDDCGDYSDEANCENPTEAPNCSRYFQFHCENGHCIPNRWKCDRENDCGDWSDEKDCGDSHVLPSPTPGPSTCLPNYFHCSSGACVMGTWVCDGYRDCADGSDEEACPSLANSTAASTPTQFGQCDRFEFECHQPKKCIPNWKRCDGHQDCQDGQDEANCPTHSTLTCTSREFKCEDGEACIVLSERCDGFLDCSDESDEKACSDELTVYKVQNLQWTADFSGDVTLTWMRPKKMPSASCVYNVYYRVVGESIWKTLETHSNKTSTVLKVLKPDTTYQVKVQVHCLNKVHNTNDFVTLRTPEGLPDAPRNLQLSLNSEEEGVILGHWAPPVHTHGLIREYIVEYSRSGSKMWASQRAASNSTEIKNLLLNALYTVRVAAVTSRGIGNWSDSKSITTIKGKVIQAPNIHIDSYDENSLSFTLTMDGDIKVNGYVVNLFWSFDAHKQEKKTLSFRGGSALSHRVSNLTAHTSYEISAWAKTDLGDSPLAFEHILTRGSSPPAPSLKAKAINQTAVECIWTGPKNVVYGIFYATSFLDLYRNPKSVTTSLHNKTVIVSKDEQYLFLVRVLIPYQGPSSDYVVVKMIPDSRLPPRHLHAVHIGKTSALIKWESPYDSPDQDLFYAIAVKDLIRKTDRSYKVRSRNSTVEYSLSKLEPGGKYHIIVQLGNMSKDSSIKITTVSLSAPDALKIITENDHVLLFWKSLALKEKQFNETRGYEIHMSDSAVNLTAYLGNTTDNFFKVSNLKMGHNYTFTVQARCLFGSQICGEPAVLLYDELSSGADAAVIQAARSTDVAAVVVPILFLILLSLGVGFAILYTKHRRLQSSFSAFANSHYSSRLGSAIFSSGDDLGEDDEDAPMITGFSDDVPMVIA

Key:
[1] = target: tropomyosin-related kinase receptor B (TrkB) (mouse (endogenous in brain)) (UniProt P15209); test: co-IP; endogenous proteins from brain lysates; IP with anti-SORLA or anti-Trk antisera, control without primary antibody (No IgG); standard protocols utilizing streptavidin agarose beads; Western blot
[2] = target: Sorting protein-related receptor containing LDLR class A repeats (SORLA) (mouse (endogenous in brain)) (UniProt O88307); test: as above

binding [1] | binding [2] | Substance
binds | – | Sorting protein-related receptor containing LDLR class A repeats (SORLA) (from UniProt O88307 82-2215)
– | binds | tropomyosin-related kinase receptor B (TrkB) (from UniProt P15209 32-821)
